A short description of the experiment: qHTS Assay to Find Inhibitors of Chronic Active B-Cell Receptor Signaling. The settings on record: ABC-DLBCL IkBa-CBG/CBR reporter, luminescence ratio (green luciferase fused to IkBa over red control in TMD8 lymphoma cells), 4 h. In a few lines: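 TMD8 ABC-DLBCL cells carrying doxycycline-inducible green luciferase fused to IkappaBalpha plus unfused red luciferase were exposed to compounds (up to 46 uM) for 4 hrs at 37C. Activity came from the overlap-corrected green/red luminescence ratio.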
(qHTS replaces the single test concentration by a dilution series.)

Setting [1] is: measured here: CBR red luminescence, cell number.
Setting [2] is: measured here: IkBa-CBG green luminescence.

This is one part of the list. The main result of the screen is listed elsewhere. These columns were measured beside it and carry no call. Compounds called inactive in the main read-out are mostly missing here. Potencies come from curve fits of mixed quality, noted in brackets.

The values below come from PubChem BioAssay AID493014 (National Center for Advancing Translational Sciences (NCATS), 2011).

With `CC(CCc1ccc(O)cc1)NC(c1ccccc1)c1ccc(Cl)cc1` (stereo not drawn), the AC50 (as a rule, the concentration giving half of the maximal activity seen) under setting [1] is 25.1 µM [falling, single point].

Consider `CC(=O)N(\C=C/C=C/C=C1\Sc2ccccc2C1=O)c1ccccc1`, for which the AC50 under setting [1] is 2.24 µM [falling, full curve, poor fit].

Turning to `COc1ccc(C)c2sc(N(CCCN(C)C)C(=O)c3ccc(S(=O)(=O)N(C)C)cc3)nc12`, under setting [1], the AC50 is 11.2 µM [falling, partial curve, poor fit].

Take `COc1cccc2cc(/C(=N/O)c3ccccc3)oc12`: the AC50 under setting [1] was 35.5 µM [falling, single point].

With `O=C1CCC([N+](=O)[O-])C(c2cccc(Cl)c2Cl)N1` (stereo not drawn), under setting [1], the AC50 is 32.6 µM [falling, single point].

On to `Cc1ccc(/C=N/n2c(C3CCCCC3)n[nH]c2=S)o1`, for which the AC50 under setting [1] was 5.8 µM [rising, partial curve, poor fit].

For `CC(C)C(C(=O)NCc1ccco1)N(Cc1ccco1)C(=O)CNS(=O)(=O)c1ccc(F)cc1` (stereo not drawn), the AC50 under setting [1] was 25.1 µM [falling, single point].

Turning to `CCC1Oc2ccc(C)cc2N(CC(=O)N(Cc2cccnc2)Cc2ccc(C)o2)C1=O` (stereo not drawn), the AC50 under setting [1] is 0.82 µM [falling, full curve, poor fit].

For the molecule `CCOC(=O)c1cccc(NC(=O)/C=C/c2ccc([N+](=O)[O-])cc2)c1`, the AC50 under setting [1] is 6.51 µM [falling, partial curve].

As to `CCCOc1ccc(NC(=O)C2CC(=O)N3CCCN=C3S2)cc1` (stereo not drawn), under setting [1], the AC50 is 0.651 µM [falling, full curve].

`CC(C)c1nc(SCC(=O)Nc2nc3c(s2)CCCC3)c2ccccc2n1`: under setting [1], the AC50 was 29.1 µM [falling, single point].

In the case of `CCOc1cc(C(=O)N/N=C/C(Br)=C/c2ccccc2)cc(OCC)c1OCC`, the AC50 was 5.8 µM [rising, full curve] under setting [1] and 7.31 µM [falling, partial curve] under setting [2].

`CN1CCN(C(=O)C2CCC(CNS(=O)(=O)c3cccc4cccnc34)CC2)CC1` (stereo not drawn): the AC50 under setting [1] was 29.1 µM [rising, single point].

For `CCOC(=O)c1cc(-c2ccc(F)cc2)n(CCC(=O)NCc2ccc(C)cc2)c1C`, the AC50 under setting [1] was 3.16 µM [rising, partial curve, poor fit].

As for `Nn1c(C2CCC2)nc2cc(Cl)ccc2c1=O`, the AC50 under setting [1] was 12.6 µM [rising, partial curve].

Take `N#CCCN(C(=O)COC(=O)c1ccc(S(=O)(=O)N2CCCC2)cc1)c1cccc(Cl)c1`: under setting [1], the half-maximal activity concentration (AC50) was 4.11 µM [rising, full curve, poor fit].

Turning to `O=C(/C=C/c1cccc(Br)c1)NC1CCN(Cc2ccccc2)CC1`, under setting [1], the AC50 is 35.5 µM [falling, single point].

For `CNC(=S)N/N=C/c1cc(Br)c(OCc2ccncc2)c(OC)c1`, the AC50 under setting [1] was 15.8 µM [rising, single point] and the AC50 under setting [2] was 12.6 µM [falling, single point].

Consider `COc1ccc(C(=O)C(CCCCC(CN(C)C)C(=O)c2ccc(OC)cc2)CN(C)C)cc1` (stereo not drawn), for which, under setting [1], the AC50 was 12.6 µM [falling, partial curve].

In the case of `O=C1c2ccccc2C(=O)N1CCc1c[nH]c2ccc(O)cc12`, the half-maximal activity concentration (AC50) under setting [1] was 20 µM [falling, single point].

For the molecule `CCOC(=O)NC1(Nc2cccc(Cl)c2)Oc2ccccc2O1`, the AC50 under setting [1] is 3.26 µM [rising, single point].

Regarding `Fc1ccc(N2N=C(c3cccs3)CC2c2ccccc2)cc1` (stereo not drawn), under setting [1], the AC50 was 7.08 µM [rising, partial curve].

With `O=C(Nc1ccnn1C1CCN(C2CCCC2)CC1)c1ccccc1`, the AC50 under setting [1] is 35.5 µM [falling, single point].

As to `O=C(CCCCl)NC1=NN(c2ccccc2)C(=O)C1`, the AC50 under setting [1] was 29.1 µM [falling, single point].

Turning to `CC(C)(C)c1ccc(S(=O)(=O)NCc2ccc(C(=O)N3CCCC3)cc2)cc1`, the AC50 under setting [1] was 29.1 µM [falling, single point].

As to `O=C(N/N=C/c1ccc(N2CCOCC2)s1)c1ccc(NS(=O)(=O)c2cccs2)cc1`, the AC50 under setting [1] is 11.2 µM [falling, partial curve, poor fit].

`O=C(Nc1ccc(S(=O)(=O)N2CCCC2)cc1)N1c2ccccc2Sc2ccccc21`: under setting [1], the AC50 is 3.55 µM [rising, partial curve, poor fit].

As to `Cc1onc(-c2c(Cl)cccc2Cl)c1C(=O)NCC1CCCO1` (stereo not drawn), under setting [1], the AC50 was 0.731 µM [rising, full curve, poor fit].

For `COc1ccc(NC(=O)c2nn(C)c(C(=O)Nc3ccc(OC)cc3)c2[N+](=O)[O-])cc1`, the AC50 under setting [1] was 25.1 µM [rising, single point].

Regarding `Cc1ccc(NC(=O)CSc2nnc(-c3ccco3)o2)cc1`, under setting [1], the AC50 was 6.31 µM [rising, single point].

As for `Clc1ccc(Cc2noc(Cc3ccccc3)n2)cc1Cl`, the AC50 under setting [1] is 20.6 µM [rising, partial curve, poor fit].

In the case of `O=S1(=O)[C@H]2C[C@H](CO)O[C@@]2(CO)CN1Cc1ccc(-c2cccc(Cl)c2)cc1`, the AC50 is 0.259 µM [rising, full curve, poor fit] under setting [1] and 0.82 µM [falling, partial curve] under setting [2].

Consider `CC(=O)Oc1ccc(C(=O)NCCc2ccccc2)cc1`, for which, under setting [1], the AC50 was 7.94 µM [falling, partial curve, poor fit].

As for `CCNC(=S)N/N=C/c1ccc(OCC(=O)Nc2ccc(OC)cc2)c(OC)c1`, under setting [1], the AC50 was 4.11 µM [rising, full curve].

With `Cc1ccc2c(c1)sc1nc(=O)n(-c3cccc(Cl)c3)c(=O)n12`, the half-maximal activity concentration (AC50) under setting [1] is 1.26 µM [rising, full curve, poor fit].

Regarding `COc1ccc(-c2noc(C3CCCN(C(=O)Nc4ccccc4F)C3)n2)cc1` (stereo not drawn), the AC50 under setting [1] is 35.5 µM [falling, single point].

As for `Cc1[nH]n(-c2ccccc2)c(=O)c1N=Nc1cccc(C(=O)O)c1`, the concentration at half-maximal activity (AC50) under setting [1] was 0.631 µM [falling, full curve].

As for `O=C(CN(Cc1ccccc1Cl)C(=O)Cn1nnc(-c2cccs2)n1)NCC1CCCO1` (stereo not drawn), under setting [1], the AC50 was 10 µM [rising, partial curve, poor fit].

Regarding `CC(C)c1ccc(Nc2nnc(SC3CCOC3=O)s2)cc1` (stereo not drawn), the AC50 under setting [1] is 5.8 µM [rising, single point].

Take `N#Cc1cnc2sc3ccccc3n2c1=N`: the half-maximal activity concentration (AC50) under setting [1] is 29.1 µM [falling, single point].
